# Library screen at single concentrations

Sequences of proteins named here, by UniProt entry; tags and fusion partners are left off. Residues count along the entry.
UniProt I6X8D2, whole entry: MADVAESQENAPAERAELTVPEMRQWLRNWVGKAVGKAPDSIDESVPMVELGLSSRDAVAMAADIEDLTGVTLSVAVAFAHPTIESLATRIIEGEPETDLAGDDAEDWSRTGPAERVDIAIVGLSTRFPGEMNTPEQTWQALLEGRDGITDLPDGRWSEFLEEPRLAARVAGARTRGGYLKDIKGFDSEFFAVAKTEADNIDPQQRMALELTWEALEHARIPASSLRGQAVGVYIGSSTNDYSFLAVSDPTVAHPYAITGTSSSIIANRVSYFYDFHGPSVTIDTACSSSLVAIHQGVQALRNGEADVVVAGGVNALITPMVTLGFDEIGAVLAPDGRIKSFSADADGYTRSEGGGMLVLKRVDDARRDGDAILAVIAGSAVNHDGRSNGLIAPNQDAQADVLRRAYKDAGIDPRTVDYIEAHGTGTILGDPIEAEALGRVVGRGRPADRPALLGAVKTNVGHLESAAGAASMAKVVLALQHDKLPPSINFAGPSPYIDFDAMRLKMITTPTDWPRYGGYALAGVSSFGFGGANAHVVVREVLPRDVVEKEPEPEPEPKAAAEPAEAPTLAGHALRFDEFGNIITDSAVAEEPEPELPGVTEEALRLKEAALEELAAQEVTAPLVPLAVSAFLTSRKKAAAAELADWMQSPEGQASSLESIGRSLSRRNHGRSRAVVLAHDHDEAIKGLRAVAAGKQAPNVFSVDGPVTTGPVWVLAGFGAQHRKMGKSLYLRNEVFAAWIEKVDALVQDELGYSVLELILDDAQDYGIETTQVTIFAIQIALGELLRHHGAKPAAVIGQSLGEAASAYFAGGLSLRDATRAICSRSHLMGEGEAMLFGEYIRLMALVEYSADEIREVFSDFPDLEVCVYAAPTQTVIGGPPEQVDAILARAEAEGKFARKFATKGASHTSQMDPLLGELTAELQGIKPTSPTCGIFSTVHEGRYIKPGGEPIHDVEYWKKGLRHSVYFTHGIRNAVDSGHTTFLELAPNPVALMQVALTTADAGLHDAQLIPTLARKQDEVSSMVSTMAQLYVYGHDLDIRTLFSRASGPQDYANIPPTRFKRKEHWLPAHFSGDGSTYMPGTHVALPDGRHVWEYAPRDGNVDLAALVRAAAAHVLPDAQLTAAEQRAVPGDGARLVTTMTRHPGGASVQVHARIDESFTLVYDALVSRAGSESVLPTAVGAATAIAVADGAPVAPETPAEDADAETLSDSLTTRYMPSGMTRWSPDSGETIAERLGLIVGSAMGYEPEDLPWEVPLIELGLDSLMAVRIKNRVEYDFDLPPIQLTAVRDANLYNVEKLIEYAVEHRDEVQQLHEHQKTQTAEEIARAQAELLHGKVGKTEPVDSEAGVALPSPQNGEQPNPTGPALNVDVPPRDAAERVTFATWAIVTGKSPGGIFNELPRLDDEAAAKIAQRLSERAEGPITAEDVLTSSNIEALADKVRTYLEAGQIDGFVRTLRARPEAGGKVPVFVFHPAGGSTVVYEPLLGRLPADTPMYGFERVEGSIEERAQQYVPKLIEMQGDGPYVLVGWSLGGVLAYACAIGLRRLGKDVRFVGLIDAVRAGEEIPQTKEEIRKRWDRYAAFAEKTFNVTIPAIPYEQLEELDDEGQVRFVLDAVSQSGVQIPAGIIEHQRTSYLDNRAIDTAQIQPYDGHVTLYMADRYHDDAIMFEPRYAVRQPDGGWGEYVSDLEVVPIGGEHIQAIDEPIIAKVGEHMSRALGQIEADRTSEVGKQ
UniProt P9WFT3, whole entry: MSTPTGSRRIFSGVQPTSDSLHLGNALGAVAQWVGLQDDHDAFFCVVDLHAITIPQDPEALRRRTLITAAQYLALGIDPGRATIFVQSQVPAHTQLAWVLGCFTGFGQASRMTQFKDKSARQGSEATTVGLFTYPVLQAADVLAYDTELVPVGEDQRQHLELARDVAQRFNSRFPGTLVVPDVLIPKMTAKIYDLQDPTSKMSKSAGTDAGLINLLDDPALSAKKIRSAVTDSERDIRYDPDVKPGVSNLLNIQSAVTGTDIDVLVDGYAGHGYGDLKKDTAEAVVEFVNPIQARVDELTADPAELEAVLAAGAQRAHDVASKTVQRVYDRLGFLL
UniProt P9WNZ1, whole entry: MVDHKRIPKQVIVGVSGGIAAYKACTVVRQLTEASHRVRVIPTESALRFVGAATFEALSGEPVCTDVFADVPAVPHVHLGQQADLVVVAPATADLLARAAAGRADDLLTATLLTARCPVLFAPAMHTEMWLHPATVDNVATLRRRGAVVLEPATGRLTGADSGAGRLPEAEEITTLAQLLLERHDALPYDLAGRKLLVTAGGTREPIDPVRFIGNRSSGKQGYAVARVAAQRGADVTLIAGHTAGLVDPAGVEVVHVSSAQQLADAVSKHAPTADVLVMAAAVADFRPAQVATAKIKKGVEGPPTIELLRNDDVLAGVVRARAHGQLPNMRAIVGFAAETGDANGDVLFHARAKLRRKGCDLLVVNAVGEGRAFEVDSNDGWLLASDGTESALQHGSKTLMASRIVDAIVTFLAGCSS
UniProt Q8IDJ8, 1-583: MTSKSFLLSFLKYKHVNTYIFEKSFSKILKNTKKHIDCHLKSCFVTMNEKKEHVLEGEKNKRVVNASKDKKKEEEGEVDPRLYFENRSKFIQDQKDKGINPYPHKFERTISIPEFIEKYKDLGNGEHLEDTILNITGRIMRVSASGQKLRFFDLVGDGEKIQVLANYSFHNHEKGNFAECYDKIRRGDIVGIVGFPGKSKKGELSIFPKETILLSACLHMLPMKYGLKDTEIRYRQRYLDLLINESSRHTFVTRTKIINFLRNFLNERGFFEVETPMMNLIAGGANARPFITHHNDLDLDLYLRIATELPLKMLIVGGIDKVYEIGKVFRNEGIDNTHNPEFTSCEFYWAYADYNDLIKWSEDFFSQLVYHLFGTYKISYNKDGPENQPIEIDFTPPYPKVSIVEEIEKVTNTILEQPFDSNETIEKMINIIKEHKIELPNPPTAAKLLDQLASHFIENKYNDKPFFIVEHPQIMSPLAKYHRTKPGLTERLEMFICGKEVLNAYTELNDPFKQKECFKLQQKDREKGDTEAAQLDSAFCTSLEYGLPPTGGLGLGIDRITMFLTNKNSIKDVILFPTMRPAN

The values are deposited in ChEMBL (CHEMBL3988442, “University of Dundee, Small-Polar-MMV Screening Library” (2021)).

A: 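Enzyme assay of the thioesterase domain of polyketide synthase 13; the read-out is not stated. Target: Polyketide synthase Pks13, Mycobacterium tuberculosis (UniProt I6X8D2). Concentration: 30 µM. Higher reads as stronger inhibition (inferred from which compounds were picked for retests). Size under these conditions: about 67,000 compounds, about 300 of them at 50% or above in at least one test.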
B: 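Tryptophan-tRNA ligase, Mycobacterium tuberculosis (UniProt P9WFT3). Enzyme assay of tryptophanyl-tRNA synthetase; the read-out is not stated. Tested at 10 µM. Direction is not recorded; retested compounds ran higher, which suggests that high means inhibition. Size under these conditions: about 65,000 compounds, about 64 of them at 50% or above in at least one test.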
C: 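Enzyme assay of CoaBC with a phosphate dye (Biomol Green) read at 650 nm. Target: Coenzyme A biosynthesis protein CoaBC, Mycobacterium tuberculosis (UniProt P9WNZ1). Concentration: 30 µM. Higher reads as stronger inhibition, judged from the few compounds that gave an IC50. Most strong results did not repeat in a second test. Size under these conditions: about 67,000 compounds, about 40 of them at 50% or above in at least one test.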
D: 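Enzyme assay of the cytosolic lysyl-tRNA synthetase in 384-well plates, read by luminescence. Target: Lysine-tRNA ligase, Plasmodium falciparum 3D7 (UniProt Q8IDJ8). Concentration: 30 µM. Higher reads as stronger inhibition, judged from the few compounds that gave an IC50. Of about 69,000 compounds tested this way, about 49 (0.071%) reached 50% or more in at least one test.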

Results are given as percent effect. The controls that fix the scale are not given in the record; negative values are as filed. The compounds are a random part of those screened.

Cc1c(C)n2c(SCC(=O)N3CCCC3)nnc2[nH]c1=O read A: -20.48%; B: -1.75%; C: 4.377%; D: 8.305%. With O=C(C(CNCc1ccco1)c1ccccc1)N1CCOCC1 (stereo not shown) the screen gave A: -11.54%; B: -2.13%; C: 1.269%; D: 1.46%. For CC(c1nnc(-c2ccccc2)o1)N1CCC(Nc2ccccc2)CC1 (stereo not shown) the result was A: 11.89%; B: 0.4591%; C: 6.65%; D: -2.851%. With CCc1nccn1C1CCCN(C(=O)c2ccoc2C)C1 (stereo not shown) the screen gave A: -13.69%; B: -5.508%; C: 2.445%; D: -0.854%. COCCO[C@H]1CCN(Cc2cccnc2)[C@H]1Cc1cccnc1 read A: -26.12%; B: 4.083%; C: -0.4938%; D: -0.4862%.

For CCNC(=O)Nc1cccc(F)c1C(=O)NC1CCCC1 the result was A: -2.702%; B: 0.8596%; C: 7.968%; D: 3.539%. With Cc1cc(CN2C[C@@H]3COC[C@H](C(=O)N4CCCCO4)[C@@H]3C2)no1 the screen gave A: -9.587%; B: -1.72%; C: 2.25%; D: 1.478%. With Cc1nnc(CN2CCOC(c3ccc(Cl)cc3)C2)o1 (stereo not shown) the screen gave A: 20.45%; B: -1.27%; C: -0.2457%; D: 1.548%. Result for CN(CC1(O)CCCC1)C(=O)c1cccc(Nc2cnccn2)c1 was A: 9.646%; B: 0.4428%; C: 1.211%; D: 2.558%. Result for CC(C)(C(=O)NCC1CCN(Cc2ccccn2)C1)c1ccccc1 (stereo not shown) was A: -35.22%; B: 3.051%; C: 15.91%; D: -0.03524%.

Cc1n[nH]c2c1C(c1ccc(Br)cc1)SCC(=O)N2 (stereo not shown) gave A: -11.53%; B: 0%; C: -3.269%; D: 1.471%. Result for COc1ccc2[nH]cc(C(=O)CNc3nccs3)c2c1 was A: -29.85%; B: -2.001%; C: -0.6904%; D: 3.434%. Cc1ccc(CNC(=O)Cn2nc(-c3ccc(F)cc3)oc2=O)cc1F read A: 12.44%; B: -1.82%; C: 5.196%; D: 1.475%. Cc1cn(CC(=O)NC2CCN(C(=O)C3CC3)CC2)c2ccccc12 read A: -11.46%; B: 1.509%; C: -8.37%; D: 5.591%. Result for Cc1n[nH]c2c1C(c1ccc(Cl)cc1)SCC(=O)N2 (stereo not shown) was A: -16.68%; B: 0.1555%; C: -4.237%; D: -0.9422%.

CCc1cnc(N2CCN(CC(=O)Nc3c(C)n[nH]c3C)CC2)s1 read A: -15.24%; B: 1.528%; C: -0.9756%; D: 3.852%. Result for CC(C)n1cnc2ccc(NC(=O)CCCn3cccn3)cc2c1=O was A: 34.34%; B: 4.111%; C: 2.179%; D: 0.7125%. With CCc1cnc(C)nc1N(C)CCCc1cnn(C)c1 the screen gave A: -9.925%; B: 3.301%; C: 2.651%; D: 5.034%. For CCc1ncc2c(n1)CN(Cc1cc(C)on1)CC2 the result was A: -8.74%; B: 2.185%; C: 1.408%; D: 4.776%. For O=C(c1cc(Cl)c[nH]1)N(CCCO)Cc1cccnc1 the result was A: -11.41%; B: -8.664%; C: 1.434%; D: -0.2807%.

CN(c1ccc(F)cc1)S(=O)(=O)c1cc2c(c(C(=O)O)c1)OCCO2 read A: 6.267%; B: 0.5298%; C: 2.561%; D: 1.138%. Result for Clc1cc(N2CCN3CCCCC3C2)nc2[nH]ccc12 (stereo not shown) was A: 8.485%; B: 2.496%; C: -9.421%; D: 1.426%. Result for CC(=O)N1CCCC2(CN(Cc3ccc(C)s3)CCO2)C1 (stereo not shown) was A: 10.33%; B: -4.182%; C: 0.9677%; D: 5.097%. Result for Cc1cc(NC(=O)CN2C(=O)CC(C)(C)c3ccccc32)no1 was A: -24.54%; B: 4.207%; C: -3.614%; D: 1.556%. Cc1cnn(CC2CCCCN2C(=O)c2ccnc(N(C)C)c2)c1 (stereo not shown) read A: -5.69%; B: -0.2346%; C: 1.282%; D: 2.6%.

With COCC(=O)N1CC[C@@H]2CN(Cc3cccc(Cl)c3)S(=O)(=O)[C@@H]2CC1 the screen gave A: -12.51%; B: 1.154%; C: 3.934%; D: -0.5695%.

The last 3 entries again:

SMILES,A,B,C,D
Cc1cc(NC(=O)CN2C(=O)CC(C)(C)c3ccccc32)no1,-24.54,4.207,-3.614,1.556
Cc1cnn(CC2CCCCN2C(=O)c2ccnc(N(C)C)c2)c1 (stereo not shown),-5.69,-0.2346,1.282,2.6
COCC(=O)N1CC[C@@H]2CN(Cc3cccc(Cl)c3)S(=O)(=O)[C@@H]2CC1,-12.51,1.154,3.934,-0.5695